Measured values reported in PMC9454738.
The exact form of at least one protein or probe is not confirmed. For part of these data: A negative result means that nothing was seen under these conditions. For part of these data: A weaker result is weaker than the reference pair of the same experiment.

By UniProt entry, the sequences of proteins in these tests, tags left out. Where a name states a change or a piece, a line headed by the entry shows the natural chain unless it says otherwise.
UniProt P40763: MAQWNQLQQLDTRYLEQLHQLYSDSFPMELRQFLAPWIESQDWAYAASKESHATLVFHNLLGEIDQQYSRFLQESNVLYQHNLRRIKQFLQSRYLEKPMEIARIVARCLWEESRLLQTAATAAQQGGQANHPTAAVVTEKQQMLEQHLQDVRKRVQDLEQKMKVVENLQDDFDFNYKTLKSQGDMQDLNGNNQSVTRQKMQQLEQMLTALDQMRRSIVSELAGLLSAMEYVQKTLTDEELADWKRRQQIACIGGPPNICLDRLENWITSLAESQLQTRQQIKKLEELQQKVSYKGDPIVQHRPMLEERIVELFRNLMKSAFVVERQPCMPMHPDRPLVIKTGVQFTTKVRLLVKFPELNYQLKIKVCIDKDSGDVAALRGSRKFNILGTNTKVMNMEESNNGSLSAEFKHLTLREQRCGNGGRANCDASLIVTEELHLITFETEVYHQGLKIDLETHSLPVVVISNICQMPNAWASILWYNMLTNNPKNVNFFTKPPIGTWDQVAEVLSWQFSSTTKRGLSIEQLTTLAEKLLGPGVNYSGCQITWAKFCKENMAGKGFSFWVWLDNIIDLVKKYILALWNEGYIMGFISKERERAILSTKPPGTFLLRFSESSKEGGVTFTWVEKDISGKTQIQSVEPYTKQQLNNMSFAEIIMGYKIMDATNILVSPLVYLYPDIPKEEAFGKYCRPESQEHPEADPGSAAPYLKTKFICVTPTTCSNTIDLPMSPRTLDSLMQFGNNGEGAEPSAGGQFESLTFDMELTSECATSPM
UniProt P08151: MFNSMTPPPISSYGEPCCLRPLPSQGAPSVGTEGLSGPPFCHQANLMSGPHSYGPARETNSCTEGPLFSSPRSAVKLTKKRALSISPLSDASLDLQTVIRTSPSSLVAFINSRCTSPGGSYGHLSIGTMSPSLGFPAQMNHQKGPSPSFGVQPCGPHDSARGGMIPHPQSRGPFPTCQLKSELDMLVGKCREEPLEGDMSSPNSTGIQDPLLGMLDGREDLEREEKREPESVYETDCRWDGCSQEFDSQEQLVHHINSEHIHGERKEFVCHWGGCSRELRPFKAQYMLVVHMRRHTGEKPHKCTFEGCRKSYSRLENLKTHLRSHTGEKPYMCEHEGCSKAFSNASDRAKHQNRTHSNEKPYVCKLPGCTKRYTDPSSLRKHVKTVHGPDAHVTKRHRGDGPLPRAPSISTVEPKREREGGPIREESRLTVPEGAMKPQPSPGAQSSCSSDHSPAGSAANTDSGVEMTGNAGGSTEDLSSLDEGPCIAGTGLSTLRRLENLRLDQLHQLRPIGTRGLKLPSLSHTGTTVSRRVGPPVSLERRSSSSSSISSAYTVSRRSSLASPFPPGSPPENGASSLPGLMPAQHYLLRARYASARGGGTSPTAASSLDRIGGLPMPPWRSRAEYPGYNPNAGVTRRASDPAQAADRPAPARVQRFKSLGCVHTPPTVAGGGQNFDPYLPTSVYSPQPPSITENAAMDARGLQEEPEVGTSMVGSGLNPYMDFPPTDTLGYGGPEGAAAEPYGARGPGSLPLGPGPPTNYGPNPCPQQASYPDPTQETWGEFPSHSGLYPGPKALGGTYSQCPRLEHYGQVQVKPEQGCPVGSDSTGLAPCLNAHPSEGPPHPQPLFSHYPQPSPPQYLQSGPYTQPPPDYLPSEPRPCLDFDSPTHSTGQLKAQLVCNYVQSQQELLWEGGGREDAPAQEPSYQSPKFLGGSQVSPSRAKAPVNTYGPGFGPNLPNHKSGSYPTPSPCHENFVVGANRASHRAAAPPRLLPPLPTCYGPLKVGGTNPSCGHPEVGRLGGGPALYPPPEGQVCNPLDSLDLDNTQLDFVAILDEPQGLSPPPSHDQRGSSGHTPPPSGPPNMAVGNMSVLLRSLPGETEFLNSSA

Assays:
Assay in all cases: EMSA
STAT3 = STAT3 (UniProt P40763); settings: no drug; 50 mM NaCl, 200 mM KCl, 5 mM MgCl2, 10 mM EDTA, 5 mM DTT, 250 ug/mL BSA, 25% glycerol; 50 ng/uL poly dI-dC; commercial protein; label: 5' 6-FAM on both strands
GLI1 = GLI1 (UniProt P08151); settings: 50 mM NaCl, 200 mM KCl, 5 mM MgCl2, 10 mM EDTA, 5 mM DTT, 250 ug/mL BSA, 25% glycerol, 50 ng/uL poly dI-dC, commercial protein, label: 5' 6-FAM on both strands
[1] = test system: N-tGLI1 (N-terminal truncated GLI1); settings: 50 mM NaCl, 200 mM KCl, 5 mM MgCl2, 10 mM EDTA, 5 mM DTT, 250 ug/mL BSA, 25% glycerol, 50 ng/uL poly dI-dC, recombinant protein, protein details: MBP tag cleaved with HRV 3C protease, label: 5' 6-FAM on both strands

“CGAAGAGACCACCCAGGTAGCT (double strand) [GLI1/tGLI1 consensus probe]”: no binding (STAT3); binds (GLI1; 100 uM KCZ (ketoconazole), binding not reduced); binds (GLI1; 100 uM KCZ-7, binding not reduced). “CGAAGAGACCACCCAGGTAGCT (double strand) [GLI1/tGLI1 consensus probe]”: binds (GLI1; no drug); binds more weakly ([1]; 100 uM KCZ (ketoconazole)); binds more weakly ([1]; 100 uM KCZ-7).
